{
  "source": "patent US20180296531A1",
  "about": "“STIMULATION OF 11B-HSD2 EXPRESSION TO IMPROVE HORMONAL THERAPY OF STEROID-DEPENDENT DISEASE” (THE CLEVELAND CLINIC FOUNDATION, priority 2015, published 2018)",
  "key": {"[1]": {"test_system": "PSA, KLF9, PMEPA1 expression", "assay": "Steroid-induced gene expression (PSA, KLF9, PMEPA1) by qPCR in long-term Enz-treated LAPC4 cells", "type": "cell-based, human", "conditions": "LAPC4 treated with Enz 36 days, steroid 24 hours", "experimental": "LAPC4 cells were treated with Enz for 36 days and then seeded into 12 well plates coated with poly-DL-ornithine at 50% confluence. […] Total RNA was extracted with a GenElute Mammalian Total RNA miniprep kit (Sigma-Aldrich) and 1 μg RNA was reverse-transcribed to cDNA with the iScript cDNA Synthesis Kit (Bio-Rad). An ABI 7500 Real-Time PCR machine (Applied Biosystems) was used to perform the qPCR analysis, using iTaq Fast SYBR Green Supermix with ROX (Bio-Rad) in 96-well plates at a final reaction volume of 10 μl. The qPCR analysis was carried out in triplicate with suitable primers. Each mRNA transcript was quantitated by normalizing the sample values to RPLP0 and to vehicle treated cells (for steroid treated cells). All gene expression studies were repeated in independent experiments."}, "[2]": {"test_system": "11β-HSD2 protein", "assay": "Immunoblot of 11β-HSD2 protein in prostate cancer cell lines", "type": "cell-based, human", "conditions": "LAPC4, DEX 100 nM", "experimental": "For protein analysis, immunoblots were performed as described previously. Li et al., J Clin Endocrinol Metab 98, E1189-1197 (2013). Briefly, total cellular protein was extracted with ice cold RIPA lysis buffer (Sigma-Aldrich) containing protease inhibitors (Roche). 30-50 μg protein was separated by 8% SDS-PAGE gel and then transferred to a nitrocellulose membrane (Millipore). After incubating with the anti-11β-HSD2 antibody (Santa Cruz; 1:3000), anti-11β-HSD1 antibody (Santa Cruz; 1:1000), GR antibody (BD Biosciences; 1:1000), anti-Erlin-2 antibody (Cell Signaling Technology: 1:1000) or anti-AMFR antibody (Proteintech; 1:1000) overnight at 4° C., the appropriate secondary antibody was incubated for 1 hour at room temperature. The chemiluminescent detection system (Thermo Scientific) was used to detect the bands with peroxidase activity. An anti-β-actin antibody (Sigma-Aldrich; 1:5000) was used as a control for sample loading."}},
  "note": "At least one structure is not confirmed: it was looked up by name or label, or the drawing left a doubt.",
  "data": [
    {"compound": "C[C@@H]1C[C@H]2[C@@H]3CCC4=CC(=O)C=C[C@]4(C)[C@@]3(F)[C@@H](O)C[C@]2(C)[C@@]1(O)C(=O)CO", "note": "[dexamethasone]", "values": [
      {"measurement": "KLF9 expression", "setting": "[1]", "value": "induced"},
      {"measurement": "11β-HSD2 protein after GR stimulation", "setting": "[2]", "value": "11β-HSD2 loss is not attributable to GR stimulation"}
    ]}
  ]
}
